Measurements reported in the supplement of paper PMC10849652.
The list shows a part of the results.

Chains of the proteins cited; added tags and fusions are not shown. Lines headed by an entry give the natural chain unless they say otherwise; changes in a name come on top.
UniProt Q96RL7: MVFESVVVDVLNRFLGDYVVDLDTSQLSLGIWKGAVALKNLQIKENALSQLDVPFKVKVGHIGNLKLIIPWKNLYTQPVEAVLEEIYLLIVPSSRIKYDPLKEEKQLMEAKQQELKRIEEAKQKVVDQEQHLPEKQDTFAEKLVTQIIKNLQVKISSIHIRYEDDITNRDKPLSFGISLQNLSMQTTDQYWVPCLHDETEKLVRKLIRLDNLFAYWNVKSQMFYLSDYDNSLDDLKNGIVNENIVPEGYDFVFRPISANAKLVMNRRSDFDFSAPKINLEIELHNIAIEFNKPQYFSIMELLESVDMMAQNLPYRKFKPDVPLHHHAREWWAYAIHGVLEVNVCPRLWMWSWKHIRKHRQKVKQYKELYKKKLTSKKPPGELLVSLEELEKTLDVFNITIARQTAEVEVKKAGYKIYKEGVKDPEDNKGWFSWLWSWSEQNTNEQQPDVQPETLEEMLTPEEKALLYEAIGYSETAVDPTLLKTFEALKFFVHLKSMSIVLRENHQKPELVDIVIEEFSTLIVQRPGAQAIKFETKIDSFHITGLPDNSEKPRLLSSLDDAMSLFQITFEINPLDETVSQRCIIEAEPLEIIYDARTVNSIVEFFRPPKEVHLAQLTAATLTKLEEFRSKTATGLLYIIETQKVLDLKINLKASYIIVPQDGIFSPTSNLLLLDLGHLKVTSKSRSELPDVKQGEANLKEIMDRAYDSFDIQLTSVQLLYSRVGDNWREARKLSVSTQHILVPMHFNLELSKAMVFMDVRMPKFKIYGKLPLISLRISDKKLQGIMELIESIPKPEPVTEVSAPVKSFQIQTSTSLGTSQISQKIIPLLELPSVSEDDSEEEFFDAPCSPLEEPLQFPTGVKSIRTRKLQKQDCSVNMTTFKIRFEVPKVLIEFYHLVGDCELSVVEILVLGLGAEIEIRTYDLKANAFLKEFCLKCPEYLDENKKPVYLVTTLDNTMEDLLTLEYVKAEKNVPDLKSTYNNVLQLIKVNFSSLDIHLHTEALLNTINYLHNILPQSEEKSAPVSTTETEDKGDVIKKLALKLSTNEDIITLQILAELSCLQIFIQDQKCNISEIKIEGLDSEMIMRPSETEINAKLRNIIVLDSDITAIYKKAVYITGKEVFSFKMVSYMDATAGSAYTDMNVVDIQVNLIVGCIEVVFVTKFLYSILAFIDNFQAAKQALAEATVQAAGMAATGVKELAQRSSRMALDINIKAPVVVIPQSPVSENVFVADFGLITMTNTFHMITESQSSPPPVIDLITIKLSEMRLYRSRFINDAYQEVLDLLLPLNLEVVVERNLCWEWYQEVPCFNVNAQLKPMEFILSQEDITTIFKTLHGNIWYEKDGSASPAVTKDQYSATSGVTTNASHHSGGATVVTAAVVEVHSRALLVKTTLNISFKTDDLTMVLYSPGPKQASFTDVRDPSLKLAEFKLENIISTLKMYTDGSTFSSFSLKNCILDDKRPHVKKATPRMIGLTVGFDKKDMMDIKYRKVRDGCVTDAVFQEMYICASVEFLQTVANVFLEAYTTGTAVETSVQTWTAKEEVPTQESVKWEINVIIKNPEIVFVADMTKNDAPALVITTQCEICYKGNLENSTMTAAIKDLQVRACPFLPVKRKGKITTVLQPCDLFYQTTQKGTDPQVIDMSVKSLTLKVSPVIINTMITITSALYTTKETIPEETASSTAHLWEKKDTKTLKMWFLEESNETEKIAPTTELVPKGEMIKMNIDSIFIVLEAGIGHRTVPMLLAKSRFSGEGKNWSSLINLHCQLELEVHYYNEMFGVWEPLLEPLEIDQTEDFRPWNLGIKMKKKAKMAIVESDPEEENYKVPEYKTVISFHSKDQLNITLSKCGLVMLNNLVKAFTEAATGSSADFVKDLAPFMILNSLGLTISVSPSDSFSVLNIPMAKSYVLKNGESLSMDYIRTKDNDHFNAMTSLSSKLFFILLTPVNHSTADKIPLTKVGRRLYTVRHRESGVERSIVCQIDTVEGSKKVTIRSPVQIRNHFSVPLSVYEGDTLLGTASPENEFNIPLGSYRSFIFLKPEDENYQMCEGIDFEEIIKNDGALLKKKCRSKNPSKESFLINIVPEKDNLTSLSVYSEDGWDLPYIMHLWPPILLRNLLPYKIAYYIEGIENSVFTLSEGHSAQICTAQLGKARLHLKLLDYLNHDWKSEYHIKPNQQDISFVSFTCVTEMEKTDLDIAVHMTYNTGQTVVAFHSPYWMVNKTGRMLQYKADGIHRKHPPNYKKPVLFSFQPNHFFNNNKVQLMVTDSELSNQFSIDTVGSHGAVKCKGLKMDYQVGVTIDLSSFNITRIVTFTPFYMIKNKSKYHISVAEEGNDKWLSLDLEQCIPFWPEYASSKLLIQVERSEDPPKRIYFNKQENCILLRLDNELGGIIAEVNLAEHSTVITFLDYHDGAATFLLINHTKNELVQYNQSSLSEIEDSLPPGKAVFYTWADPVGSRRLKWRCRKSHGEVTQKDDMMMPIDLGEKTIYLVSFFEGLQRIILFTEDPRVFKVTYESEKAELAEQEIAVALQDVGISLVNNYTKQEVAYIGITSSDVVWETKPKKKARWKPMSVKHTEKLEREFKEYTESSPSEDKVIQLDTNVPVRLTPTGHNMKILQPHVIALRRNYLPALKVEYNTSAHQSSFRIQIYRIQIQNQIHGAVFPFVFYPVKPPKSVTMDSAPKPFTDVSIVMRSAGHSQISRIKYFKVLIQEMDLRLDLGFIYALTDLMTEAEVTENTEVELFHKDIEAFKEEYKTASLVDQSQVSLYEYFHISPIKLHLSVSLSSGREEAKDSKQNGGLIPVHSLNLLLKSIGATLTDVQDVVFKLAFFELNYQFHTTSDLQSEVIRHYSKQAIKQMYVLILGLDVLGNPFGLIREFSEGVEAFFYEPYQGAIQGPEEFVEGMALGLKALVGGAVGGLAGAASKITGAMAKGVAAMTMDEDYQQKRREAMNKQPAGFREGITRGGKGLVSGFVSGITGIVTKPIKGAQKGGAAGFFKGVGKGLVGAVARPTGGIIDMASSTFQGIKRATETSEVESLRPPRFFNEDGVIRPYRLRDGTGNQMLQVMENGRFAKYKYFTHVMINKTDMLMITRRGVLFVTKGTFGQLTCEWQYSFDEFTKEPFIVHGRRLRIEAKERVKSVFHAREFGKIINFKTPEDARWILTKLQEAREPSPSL
UniProt P57081: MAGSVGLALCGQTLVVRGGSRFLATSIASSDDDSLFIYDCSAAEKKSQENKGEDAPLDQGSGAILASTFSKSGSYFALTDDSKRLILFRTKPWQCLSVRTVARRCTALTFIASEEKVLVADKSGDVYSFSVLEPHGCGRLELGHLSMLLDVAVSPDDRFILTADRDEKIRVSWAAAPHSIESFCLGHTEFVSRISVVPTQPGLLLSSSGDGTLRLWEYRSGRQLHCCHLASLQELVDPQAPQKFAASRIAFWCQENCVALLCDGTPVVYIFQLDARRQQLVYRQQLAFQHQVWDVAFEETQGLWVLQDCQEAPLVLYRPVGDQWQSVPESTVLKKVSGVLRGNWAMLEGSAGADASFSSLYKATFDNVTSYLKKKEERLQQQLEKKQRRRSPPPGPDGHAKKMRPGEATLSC
UniProt Q96EX3: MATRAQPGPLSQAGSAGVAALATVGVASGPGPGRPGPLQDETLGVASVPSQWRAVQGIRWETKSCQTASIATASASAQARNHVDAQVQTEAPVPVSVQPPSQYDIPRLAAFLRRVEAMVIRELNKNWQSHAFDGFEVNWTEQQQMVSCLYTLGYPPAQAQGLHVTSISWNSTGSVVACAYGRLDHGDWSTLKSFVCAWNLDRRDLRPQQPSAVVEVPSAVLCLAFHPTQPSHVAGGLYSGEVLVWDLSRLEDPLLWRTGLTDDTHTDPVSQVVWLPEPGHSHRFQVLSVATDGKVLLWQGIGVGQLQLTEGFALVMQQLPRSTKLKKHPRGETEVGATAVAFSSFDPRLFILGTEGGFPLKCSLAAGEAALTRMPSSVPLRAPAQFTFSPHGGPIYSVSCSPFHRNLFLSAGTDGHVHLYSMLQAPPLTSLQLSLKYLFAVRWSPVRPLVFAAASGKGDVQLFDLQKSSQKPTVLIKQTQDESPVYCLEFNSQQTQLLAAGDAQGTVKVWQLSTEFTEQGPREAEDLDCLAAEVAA
UniProt Q99986: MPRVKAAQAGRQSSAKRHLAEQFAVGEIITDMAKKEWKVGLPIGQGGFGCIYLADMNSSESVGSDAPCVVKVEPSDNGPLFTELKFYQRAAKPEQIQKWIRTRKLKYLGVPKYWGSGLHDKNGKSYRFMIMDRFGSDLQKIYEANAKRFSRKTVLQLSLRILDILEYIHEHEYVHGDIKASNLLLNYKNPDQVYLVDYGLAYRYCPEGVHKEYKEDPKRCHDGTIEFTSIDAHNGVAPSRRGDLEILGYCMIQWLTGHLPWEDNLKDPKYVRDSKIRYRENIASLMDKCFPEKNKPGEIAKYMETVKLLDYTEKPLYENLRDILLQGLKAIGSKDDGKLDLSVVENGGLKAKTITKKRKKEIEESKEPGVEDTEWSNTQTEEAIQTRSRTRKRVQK
UniProt P21796, whole entry, looked up: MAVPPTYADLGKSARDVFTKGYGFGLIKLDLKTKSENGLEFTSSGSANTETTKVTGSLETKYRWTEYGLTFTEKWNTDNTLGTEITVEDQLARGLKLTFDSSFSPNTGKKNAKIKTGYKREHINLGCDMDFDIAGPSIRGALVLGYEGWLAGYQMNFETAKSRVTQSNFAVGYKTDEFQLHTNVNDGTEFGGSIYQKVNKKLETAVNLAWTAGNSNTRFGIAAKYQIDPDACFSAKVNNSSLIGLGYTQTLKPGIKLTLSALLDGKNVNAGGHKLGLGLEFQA
UniProt Q9BRG1: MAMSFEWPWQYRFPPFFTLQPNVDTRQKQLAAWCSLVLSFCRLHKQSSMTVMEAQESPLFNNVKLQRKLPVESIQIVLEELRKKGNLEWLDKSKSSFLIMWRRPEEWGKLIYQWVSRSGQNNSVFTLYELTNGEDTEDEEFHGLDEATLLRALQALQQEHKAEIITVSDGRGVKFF
WASHC2C, A0A096LPC5, UniProt A0A096LPC5, whole entry, looked up: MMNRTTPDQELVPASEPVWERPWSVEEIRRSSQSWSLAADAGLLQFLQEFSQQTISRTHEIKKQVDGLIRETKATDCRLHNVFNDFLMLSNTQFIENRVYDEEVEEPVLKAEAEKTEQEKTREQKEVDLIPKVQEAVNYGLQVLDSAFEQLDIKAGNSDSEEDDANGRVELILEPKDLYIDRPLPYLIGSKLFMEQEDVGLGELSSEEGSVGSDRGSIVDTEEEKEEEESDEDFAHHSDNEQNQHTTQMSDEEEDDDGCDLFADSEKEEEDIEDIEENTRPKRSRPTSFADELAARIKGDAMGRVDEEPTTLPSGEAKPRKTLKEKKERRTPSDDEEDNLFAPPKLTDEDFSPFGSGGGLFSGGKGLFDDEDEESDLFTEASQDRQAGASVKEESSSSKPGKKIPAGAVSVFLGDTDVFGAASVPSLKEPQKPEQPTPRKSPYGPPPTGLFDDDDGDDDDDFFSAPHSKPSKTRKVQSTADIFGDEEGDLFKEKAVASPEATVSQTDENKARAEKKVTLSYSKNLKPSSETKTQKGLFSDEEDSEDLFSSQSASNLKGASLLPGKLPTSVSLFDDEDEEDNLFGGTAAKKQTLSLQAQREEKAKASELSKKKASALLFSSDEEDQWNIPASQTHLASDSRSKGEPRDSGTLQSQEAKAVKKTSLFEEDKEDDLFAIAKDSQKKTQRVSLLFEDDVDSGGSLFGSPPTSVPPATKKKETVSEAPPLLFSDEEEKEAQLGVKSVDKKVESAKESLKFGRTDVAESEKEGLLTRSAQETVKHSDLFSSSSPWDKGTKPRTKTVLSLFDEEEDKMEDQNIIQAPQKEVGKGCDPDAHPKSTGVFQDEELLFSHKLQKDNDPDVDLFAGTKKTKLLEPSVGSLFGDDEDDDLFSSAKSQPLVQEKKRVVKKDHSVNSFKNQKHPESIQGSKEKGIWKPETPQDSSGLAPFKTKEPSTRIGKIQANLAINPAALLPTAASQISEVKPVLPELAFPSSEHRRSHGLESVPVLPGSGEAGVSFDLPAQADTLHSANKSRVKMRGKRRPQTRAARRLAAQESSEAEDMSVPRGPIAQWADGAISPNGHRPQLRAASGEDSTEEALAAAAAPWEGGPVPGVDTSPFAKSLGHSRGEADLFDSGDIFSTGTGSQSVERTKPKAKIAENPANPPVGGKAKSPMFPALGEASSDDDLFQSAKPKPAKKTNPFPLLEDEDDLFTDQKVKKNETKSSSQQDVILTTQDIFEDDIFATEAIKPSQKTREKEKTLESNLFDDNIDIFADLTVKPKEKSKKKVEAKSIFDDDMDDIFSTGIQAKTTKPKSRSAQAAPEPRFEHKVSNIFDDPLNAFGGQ

Compound: CCN(CC)Cc1ccc2cc(COC(=O)Nc3ccc(C(=O)NO)cc3)ccc2c1 [givinostat]
Test: log2 fold change, soluble protein after heating vs DMSO (PISA); higher = thermal stabilisation; K562 cells, 10 uM, 30 min; active = over 0.2 and 3.5 SD of the protein, either way, in both replicates (recomputed)
Method in brief: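 Quantification of soluble protein used TMTpro 16plex LC-MS/MS, with channel sums equalised. Samples were the supernatant after 21,000xg for 90 min of pooled aliquots from K562 cells (2×10^6 cells/mL) treated with 10 μM compound for 30 min, heated for 3 min over 48°C-58°C, and extracted in PBS with 0.5% NP-40 at 4°C. Values, from duplicates, describe thermal stability against control samples on a log2 fold-change scale.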

log2 fold change, inactive:
WAPL isoform 3 (UniProt Q7Z5K2) 0.149
VGLL4 isoform 4 (UniProt Q14135) 0.005
VPS13A (UniProt Q96RL7) 0.011
VPS53 isoform 4 (UniProt Q5VIR6) 0.045
WDR47 (UniProt O94967) 0.004
WIPI2 (UniProt Q9Y4P8) 0.019
WDR62 isoform 4 (UniProt O43379) 0.022
VPS11 (UniProt Q9H270) -0.058
VPS51 (UniProt Q9UID3) 0.071
VWA8 (UniProt A3KMH1) 0.025
WDR4 (UniProt P57081) -0.026
VPS13C (UniProt Q709C8) 0.036
WDR82 (UniProt Q6UXN9) -0.008
VEZT (UniProt Q9HBM0) -0.093
WDR45 (UniProt Q9Y484) -0.021
WIPF3 (UniProt A6NGB9) 0.011
WDR89 (UniProt Q96FK6) 0.008
WDR34 (UniProt Q96EX3) 0.027
VKORC1L1, A0A3B3ISV4 -0.005
WIZ (UniProt O95785) 0.017
VRK1 (UniProt Q99986) 0.046
WRAP73 (UniProt Q9P2S5) 0.029
VPS8 (UniProt Q8N3P4) 0.014
WDR36 (UniProt Q8NI36) 0.06
VPS41 (UniProt P49754) -0.013
VWDE (UniProt Q8N2E2) -0.012
VDAC1 (UniProt P21796) -0.001
VPS25 (UniProt Q9BRG1) -0.007
WASHC2C, A0A096LPC5 -0.012
VIM (UniProt P08670) 0.088
VPS35 (UniProt Q96QK1) -0.024
WDR48 (UniProt Q8TAF3) -0.069
WBP4 (UniProt O75554) -0.043

Already shown: entries from further up.
log2 fold change, inactive:
WDR48 (UniProt Q8TAF3) -0.069
WBP4 (UniProt O75554) -0.043
